Data taken from the supplement of paper PMC6411743.
± gives the standard deviation of the averaged measurements. The entries are a selection whose mix differs from that of the whole data set.

Protein sequences, listed by entry. Tags and fused reporters are not part of them. Lines headed by an entry give the natural chain unless they say otherwise; changes in a name come on top.
UniProt Q13576: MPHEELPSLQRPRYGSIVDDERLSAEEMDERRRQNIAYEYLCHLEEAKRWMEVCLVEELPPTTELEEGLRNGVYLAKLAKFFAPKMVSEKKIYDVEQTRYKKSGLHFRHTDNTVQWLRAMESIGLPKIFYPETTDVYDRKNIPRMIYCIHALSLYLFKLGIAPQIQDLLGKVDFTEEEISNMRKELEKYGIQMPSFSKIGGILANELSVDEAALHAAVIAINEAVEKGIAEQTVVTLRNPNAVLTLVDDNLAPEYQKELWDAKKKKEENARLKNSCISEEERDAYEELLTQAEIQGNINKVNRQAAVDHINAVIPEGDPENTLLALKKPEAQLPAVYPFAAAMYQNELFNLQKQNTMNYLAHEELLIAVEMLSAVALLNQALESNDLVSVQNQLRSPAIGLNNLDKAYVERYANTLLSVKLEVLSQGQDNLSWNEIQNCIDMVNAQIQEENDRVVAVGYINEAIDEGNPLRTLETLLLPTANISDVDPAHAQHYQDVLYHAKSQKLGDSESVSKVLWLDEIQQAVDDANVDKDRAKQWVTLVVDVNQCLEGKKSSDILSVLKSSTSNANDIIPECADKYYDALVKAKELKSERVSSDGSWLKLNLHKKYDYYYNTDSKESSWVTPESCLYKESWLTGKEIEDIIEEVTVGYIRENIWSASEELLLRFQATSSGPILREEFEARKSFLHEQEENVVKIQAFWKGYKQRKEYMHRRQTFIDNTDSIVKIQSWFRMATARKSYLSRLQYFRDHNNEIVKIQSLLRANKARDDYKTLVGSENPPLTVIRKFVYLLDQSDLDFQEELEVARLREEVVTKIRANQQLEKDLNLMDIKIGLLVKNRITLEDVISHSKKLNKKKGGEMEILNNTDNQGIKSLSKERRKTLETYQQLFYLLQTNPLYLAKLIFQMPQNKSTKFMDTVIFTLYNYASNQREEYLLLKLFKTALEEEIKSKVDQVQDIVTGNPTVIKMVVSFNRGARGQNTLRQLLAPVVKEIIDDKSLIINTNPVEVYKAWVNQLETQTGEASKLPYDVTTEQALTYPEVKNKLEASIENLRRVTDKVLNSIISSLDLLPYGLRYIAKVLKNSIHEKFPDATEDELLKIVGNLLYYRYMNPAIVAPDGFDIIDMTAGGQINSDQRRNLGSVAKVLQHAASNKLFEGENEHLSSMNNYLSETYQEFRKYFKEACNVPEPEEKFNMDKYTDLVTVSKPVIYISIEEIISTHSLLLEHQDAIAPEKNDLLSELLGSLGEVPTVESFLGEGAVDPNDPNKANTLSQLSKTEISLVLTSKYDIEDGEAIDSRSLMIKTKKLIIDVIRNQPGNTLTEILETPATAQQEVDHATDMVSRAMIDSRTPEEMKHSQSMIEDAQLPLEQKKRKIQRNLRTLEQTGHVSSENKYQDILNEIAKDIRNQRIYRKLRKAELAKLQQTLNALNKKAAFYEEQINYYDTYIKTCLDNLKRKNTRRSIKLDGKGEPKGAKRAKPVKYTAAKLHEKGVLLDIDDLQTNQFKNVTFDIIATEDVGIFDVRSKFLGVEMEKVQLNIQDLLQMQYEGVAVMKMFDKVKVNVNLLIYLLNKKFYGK
UniProt Q15102: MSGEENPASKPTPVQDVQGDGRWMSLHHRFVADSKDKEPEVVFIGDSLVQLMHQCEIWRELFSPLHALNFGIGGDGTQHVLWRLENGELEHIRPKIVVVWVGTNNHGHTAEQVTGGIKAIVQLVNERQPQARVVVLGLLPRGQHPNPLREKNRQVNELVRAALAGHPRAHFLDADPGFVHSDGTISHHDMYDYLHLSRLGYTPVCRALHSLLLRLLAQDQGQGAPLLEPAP
UniProt Q14108: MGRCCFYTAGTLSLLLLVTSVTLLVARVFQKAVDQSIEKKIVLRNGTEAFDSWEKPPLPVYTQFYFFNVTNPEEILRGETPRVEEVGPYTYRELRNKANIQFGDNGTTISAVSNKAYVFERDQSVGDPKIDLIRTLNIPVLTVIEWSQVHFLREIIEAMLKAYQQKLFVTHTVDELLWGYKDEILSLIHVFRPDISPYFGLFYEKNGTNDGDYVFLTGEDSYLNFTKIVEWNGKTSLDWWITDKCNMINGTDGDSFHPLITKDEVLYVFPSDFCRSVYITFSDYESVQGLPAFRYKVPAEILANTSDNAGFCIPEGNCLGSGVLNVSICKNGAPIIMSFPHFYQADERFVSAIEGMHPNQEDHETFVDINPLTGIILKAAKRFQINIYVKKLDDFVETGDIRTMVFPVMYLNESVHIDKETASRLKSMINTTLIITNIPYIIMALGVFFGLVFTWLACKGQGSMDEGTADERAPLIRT
UniProt Q13362, whole entry, looked up: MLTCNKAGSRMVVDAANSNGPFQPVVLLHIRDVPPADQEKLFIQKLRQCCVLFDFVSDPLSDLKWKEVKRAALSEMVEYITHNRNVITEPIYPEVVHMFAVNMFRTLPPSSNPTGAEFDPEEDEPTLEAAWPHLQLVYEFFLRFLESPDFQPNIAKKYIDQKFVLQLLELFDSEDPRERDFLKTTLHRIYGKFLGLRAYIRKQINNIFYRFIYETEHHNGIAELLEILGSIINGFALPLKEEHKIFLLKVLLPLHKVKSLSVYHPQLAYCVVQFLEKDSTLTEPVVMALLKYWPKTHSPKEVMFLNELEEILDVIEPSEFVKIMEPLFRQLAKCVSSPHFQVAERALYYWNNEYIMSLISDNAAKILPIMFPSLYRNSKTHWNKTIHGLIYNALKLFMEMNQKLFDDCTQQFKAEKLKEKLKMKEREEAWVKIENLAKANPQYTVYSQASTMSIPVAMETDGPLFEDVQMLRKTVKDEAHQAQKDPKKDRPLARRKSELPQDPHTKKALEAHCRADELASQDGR
UniProt Q10589, whole entry: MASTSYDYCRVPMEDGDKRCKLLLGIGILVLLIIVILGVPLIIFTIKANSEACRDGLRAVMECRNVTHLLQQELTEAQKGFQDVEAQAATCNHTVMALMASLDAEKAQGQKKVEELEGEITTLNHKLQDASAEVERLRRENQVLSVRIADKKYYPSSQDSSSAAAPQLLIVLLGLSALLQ
UniProt Q14676: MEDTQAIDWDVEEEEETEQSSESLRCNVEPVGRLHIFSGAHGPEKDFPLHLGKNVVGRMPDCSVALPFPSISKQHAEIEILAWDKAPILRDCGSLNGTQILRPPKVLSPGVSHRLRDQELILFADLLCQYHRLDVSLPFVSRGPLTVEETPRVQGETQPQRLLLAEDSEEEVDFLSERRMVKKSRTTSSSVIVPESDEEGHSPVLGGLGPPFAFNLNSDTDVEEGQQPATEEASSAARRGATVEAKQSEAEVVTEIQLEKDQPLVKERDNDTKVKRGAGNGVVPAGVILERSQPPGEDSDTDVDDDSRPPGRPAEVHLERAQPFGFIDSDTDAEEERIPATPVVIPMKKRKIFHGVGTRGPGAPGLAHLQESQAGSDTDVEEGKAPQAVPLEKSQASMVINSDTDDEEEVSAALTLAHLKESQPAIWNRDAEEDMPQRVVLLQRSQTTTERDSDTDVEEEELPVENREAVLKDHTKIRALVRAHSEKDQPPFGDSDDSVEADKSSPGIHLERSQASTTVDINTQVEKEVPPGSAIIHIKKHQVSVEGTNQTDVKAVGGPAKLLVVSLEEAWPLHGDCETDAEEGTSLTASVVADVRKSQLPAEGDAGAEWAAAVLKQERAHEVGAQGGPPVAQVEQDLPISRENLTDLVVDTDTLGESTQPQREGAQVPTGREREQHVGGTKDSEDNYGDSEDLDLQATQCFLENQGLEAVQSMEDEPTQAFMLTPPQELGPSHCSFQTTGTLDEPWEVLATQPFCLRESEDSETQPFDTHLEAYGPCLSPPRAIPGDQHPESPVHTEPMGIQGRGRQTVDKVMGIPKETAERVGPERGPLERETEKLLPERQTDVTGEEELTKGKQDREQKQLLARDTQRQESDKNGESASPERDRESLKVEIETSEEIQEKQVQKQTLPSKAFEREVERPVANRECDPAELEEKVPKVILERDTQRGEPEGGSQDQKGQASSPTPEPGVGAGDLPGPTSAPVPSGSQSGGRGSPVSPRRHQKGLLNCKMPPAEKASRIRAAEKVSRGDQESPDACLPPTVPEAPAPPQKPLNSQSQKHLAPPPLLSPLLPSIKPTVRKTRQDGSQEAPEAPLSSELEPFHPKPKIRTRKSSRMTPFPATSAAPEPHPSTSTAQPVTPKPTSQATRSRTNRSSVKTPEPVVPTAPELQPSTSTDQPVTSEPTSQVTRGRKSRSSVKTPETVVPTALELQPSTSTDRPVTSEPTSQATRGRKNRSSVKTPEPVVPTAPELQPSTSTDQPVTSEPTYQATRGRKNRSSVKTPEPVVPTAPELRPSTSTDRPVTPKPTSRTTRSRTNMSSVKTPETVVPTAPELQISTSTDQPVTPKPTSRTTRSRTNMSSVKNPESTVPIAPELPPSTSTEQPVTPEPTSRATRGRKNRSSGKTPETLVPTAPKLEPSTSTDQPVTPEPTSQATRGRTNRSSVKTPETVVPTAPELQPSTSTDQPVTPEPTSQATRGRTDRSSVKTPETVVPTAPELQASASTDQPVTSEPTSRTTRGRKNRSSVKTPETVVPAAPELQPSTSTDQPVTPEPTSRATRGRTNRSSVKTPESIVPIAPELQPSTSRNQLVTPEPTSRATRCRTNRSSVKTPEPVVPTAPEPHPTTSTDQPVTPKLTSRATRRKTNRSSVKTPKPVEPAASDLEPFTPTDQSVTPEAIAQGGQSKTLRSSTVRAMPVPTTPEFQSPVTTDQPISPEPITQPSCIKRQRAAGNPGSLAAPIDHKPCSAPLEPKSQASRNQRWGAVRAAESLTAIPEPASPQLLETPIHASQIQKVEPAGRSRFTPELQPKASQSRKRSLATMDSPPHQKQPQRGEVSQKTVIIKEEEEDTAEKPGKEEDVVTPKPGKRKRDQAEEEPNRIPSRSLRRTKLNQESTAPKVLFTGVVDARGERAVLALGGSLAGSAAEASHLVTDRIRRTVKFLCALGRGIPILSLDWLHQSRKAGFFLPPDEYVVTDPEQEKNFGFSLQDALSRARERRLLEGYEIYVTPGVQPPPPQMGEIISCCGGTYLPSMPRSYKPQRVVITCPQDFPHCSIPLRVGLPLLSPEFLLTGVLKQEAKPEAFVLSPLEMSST
UniProt Q15075: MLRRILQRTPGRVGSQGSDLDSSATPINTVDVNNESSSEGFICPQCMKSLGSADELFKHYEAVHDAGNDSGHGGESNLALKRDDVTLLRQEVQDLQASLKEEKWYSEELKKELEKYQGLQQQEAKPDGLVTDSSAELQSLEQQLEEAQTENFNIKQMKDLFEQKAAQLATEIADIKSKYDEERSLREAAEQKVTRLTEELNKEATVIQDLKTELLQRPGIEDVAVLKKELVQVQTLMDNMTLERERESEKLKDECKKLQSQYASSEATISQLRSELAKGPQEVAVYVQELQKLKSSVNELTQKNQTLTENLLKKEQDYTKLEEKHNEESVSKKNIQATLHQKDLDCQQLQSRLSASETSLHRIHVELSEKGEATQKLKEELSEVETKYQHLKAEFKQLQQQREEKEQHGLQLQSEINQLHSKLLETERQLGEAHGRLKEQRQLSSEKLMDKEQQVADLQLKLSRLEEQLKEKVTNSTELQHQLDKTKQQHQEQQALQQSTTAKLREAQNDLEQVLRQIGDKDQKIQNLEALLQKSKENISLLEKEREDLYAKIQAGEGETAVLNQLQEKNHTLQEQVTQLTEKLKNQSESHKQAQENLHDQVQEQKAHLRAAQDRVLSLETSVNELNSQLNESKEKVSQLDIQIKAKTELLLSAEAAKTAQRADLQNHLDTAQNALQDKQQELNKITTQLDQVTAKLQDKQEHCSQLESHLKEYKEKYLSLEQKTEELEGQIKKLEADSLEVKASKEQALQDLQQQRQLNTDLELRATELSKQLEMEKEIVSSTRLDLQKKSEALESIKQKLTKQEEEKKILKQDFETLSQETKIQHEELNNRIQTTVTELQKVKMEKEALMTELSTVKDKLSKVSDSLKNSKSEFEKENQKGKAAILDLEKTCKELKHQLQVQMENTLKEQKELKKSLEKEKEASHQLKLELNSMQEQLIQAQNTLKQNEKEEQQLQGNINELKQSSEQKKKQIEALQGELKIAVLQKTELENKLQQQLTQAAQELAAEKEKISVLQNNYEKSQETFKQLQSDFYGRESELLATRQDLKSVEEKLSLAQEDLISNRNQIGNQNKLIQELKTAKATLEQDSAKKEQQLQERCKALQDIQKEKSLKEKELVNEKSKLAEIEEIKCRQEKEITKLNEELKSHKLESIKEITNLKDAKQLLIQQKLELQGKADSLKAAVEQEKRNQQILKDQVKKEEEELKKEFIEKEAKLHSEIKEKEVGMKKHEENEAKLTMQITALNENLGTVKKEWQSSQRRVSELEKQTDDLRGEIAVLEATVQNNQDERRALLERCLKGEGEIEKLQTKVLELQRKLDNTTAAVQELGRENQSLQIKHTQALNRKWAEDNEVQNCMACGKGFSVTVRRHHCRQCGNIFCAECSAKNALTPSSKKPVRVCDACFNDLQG

Compound: Nc1ncnc2c1ncn2[C@@H]1O[C@H](COP(=O)(O)OP(=O)(O)NP(=O)(O)O)[C@@H](O)[C@H]1O [adenylyl imidodiphosphate]
Test: NP40-soluble protein abundance relative to vehicle (solubility fold change) (ratio); higher = more soluble protein in presence of AMP-PNP
In short: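 In three independent experiments, Jurkat crude lysate made by Dounce homogenisation was treated for 10 min at room temperature and then 3 min at 37 °C with eight concentrations ranging from 0.1 to 10 mM. It was then solubilised with 0.8% NP40 plus benzonase for 60 min at 4 °C and ultracentrifuged. The supernatant was TMT-labelled for LC-MS/MS, and each value is the fold change against the detergent-processed vehicle for the same replicate, using vsn-normalised intensities.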

Target	NP40-soluble protein abundance (concentration: 1mM)	NP40-soluble protein abundance (concentration: 2mM)	NP40-soluble protein abundance (concentration: 4mM)	NP40-soluble protein abundance (concentration: 6mM)	NP40-soluble protein abundance (concentration: 8mM)	NP40-soluble protein abundance (concentration: 10mM)
UniProt Q12802 and related entries	1.02 ± 0.015	1.04 ± 0.072	1.04 ± 0.02	0.992 ± 0.039	0.976 ± 0.046	1.03 ± 0.024
UniProt Q15057 and related entries	1.003 ± 0.0092	0.996 ± 0.022	1.008 ± 0.0091	0.974 ± 0.021	0.969 ± 0.034	0.983 ± 0.025
LAPTM5 (UniProt Q13571)	1 ± 0.016	1.03 ± 0.023	0.961 ± 0.027	0.977 ± 0.012	0.969 ± 0.03	0.984 ± 0.038
IQGAP2 (UniProt Q13576)	0.956 ± 0.027	0.935 ± 0.022	0.94 ± 0.051	0.944 ± 0.029	0.926 ± 0.039	0.932 ± 0.038
MTM1 (UniProt Q13496)	0.955 ± 0.016	0.932 ± 0.058	0.994 ± 0.013	0.971 ± 0.013	0.9902 ± 0.0058	0.967 ± 0.013
CHAF1B (UniProt Q13112)	1.004 ± 0.0095	1.01 ± 0.029	1.01 ± 0.011	1.01 ± 0.017	1 ± 0.028	1.01 ± 0.011
CPSF1 (UniProt Q10570)	1 ± 0.025	0.942 ± 0.045	1.01 ± 0.043	1.04 ± 0.037	1.06 ± 0.046	1.04 ± 0.085
EP300 (UniProt Q09472)	1.01 ± 0.036	1.04 ± 0.017	1.04 ± 0.027	1 ± 0.022	1 ± 0.02	1.03 ± 0.014
UniProt Q13574 and related entries	1.014 ± 0.0035	1.006 ± 0.0062	1.04 ± 0.048	0.999 ± 0.048	0.983 ± 0.071	0.996 ± 0.1
UniProt Q15054 and related entries	1.02 ± 0.028	1.01 ± 0.037	0.9859 ± 0.0026	0.948 ± 0.02	0.9417 ± 0.0086	0.954 ± 0.013
UniProt Q14558-2|Q14558	0.887 ± 0.093	0.828 ± 0.12	0.832 ± 0.097	0.804 ± 0.13	0.795 ± 0.1	0.801 ± 0.15
BOP1 (UniProt Q14137)	1.01 ± 0.018	1.01 ± 0.028	0.973 ± 0.035	0.965 ± 0.038	0.931 ± 0.033	0.946 ± 0.025
UniProt Q12981 and related entries	1.002 ± 0.0086	1.03 ± 0.063	1 ± 0.024	1.01 ± 0.023	0.996 ± 0.016	0.986 ± 0.026
PAFAH1B3 (UniProt Q15102)	0.946 ± 0.036	0.927 ± 0.038	0.939 ± 0.06	0.998 ± 0.087	0.99 ± 0.06	0.982 ± 0.039
THOC5 (UniProt Q13769)	1.36 ± 0.17	1.42 ± 0.23	1.65 ± 0.35	1.84 ± 0.54	2.03 ± 0.65	2.16 ± 0.88
UniProt Q14318-2|Q14318	1.01 ± 0.0018	1.017 ± 0.0057	1.01 ± 0.025	1.02 ± 0.031	1.02 ± 0.022	1.06 ± 0.021
MLEC (UniProt Q14165)	1.02 ± 0.035	0.962 ± 0.073	1.01 ± 0.037	1.03 ± 0.023	1.032 ± 0.009	1.01 ± 0.028
UniProt Q14562	1.05 ± 0.027	1.04 ± 0.037	1.08 ± 0.03	1.04 ± 0.044	1.09 ± 0.049	1.09 ± 0.061
KPNB1 (UniProt Q14974)	1 ± 0.023	0.999 ± 0.042	0.995 ± 0.031	1.01 ± 0.033	1.01 ± 0.048	1.02 ± 0.033
USP4 (UniProt Q13107)	1 ± 0.018	0.967 ± 0.044	1 ± 0.046	0.97 ± 0.042	0.975 ± 0.039	0.942 ± 0.038
SCARB2 (UniProt Q14108)	0.991 ± 0.058	0.974 ± 0.056	0.987 ± 0.059	1.04 ± 0.11	1.03 ± 0.091	1.01 ± 0.11
PRDX4 (UniProt Q13162)	0.963 ± 0.011	0.917 ± 0.077	0.933 ± 0.015	0.9013 ± 0.0025	0.914 ± 0.027	0.889 ± 0.012
UniProt Q13362-2|Q13362-3|Q13362-4	0.982 ± 0.017	1.04 ± 0.036	0.989 ± 0.018	0.976 ± 0.036	0.948 ± 0.018	0.966 ± 0.043
UniProt Q10589 and related entries	1.0272 ± 0.00052	1.04 ± 0.011	1.03 ± 0.025	1.03 ± 0.028	1.05 ± 0.056	1.04 ± 0.048
LBR (UniProt Q14739)	0.95 ± 0.039	0.943 ± 0.018	0.951 ± 0.032	0.975 ± 0.031	1.02 ± 0.027	0.9883 ± 0.0059
TRA2A (UniProt Q13595)	1.02 ± 0.045	0.981 ± 0.051	1 ± 0.057	0.902 ± 0.04	0.861 ± 0.079	0.906 ± 0.082
TARDBP (UniProt Q13148)	1.01 ± 0.015	1.03 ± 0.046	0.998 ± 0.021	1.02 ± 0.018	1 ± 0.012	1.01 ± 0.029

Target	NP40-soluble protein abundance (concentration: 1mM)	NP40-soluble protein abundance (concentration: 2mM)	NP40-soluble protein abundance (concentration: 4mM)	NP40-soluble protein abundance (concentration: 6mM)	NP40-soluble protein abundance (concentration: 8mM)	NP40-soluble protein abundance (concentration: 10mM)
UniProt Q12824	0.973 ± 0.021	0.948 ± 0.074	0.984 ± 0.074	0.948 ± 0.083	0.946 ± 0.034	0.923 ± 0.079
POLA2 (UniProt Q14181)	0.994 ± 0.014	0.974 ± 0.028	1 ± 0.044	1.04 ± 0.03	1.02 ± 0.021	1.03 ± 0.025
GALNT2 (UniProt Q10471)	0.961 ± 0.023	0.939 ± 0.044	0.951 ± 0.014	0.959 ± 0.02	0.957 ± 0.011	0.954 ± 0.021
NCBP1 (UniProt Q09161)	1.04 ± 0.035	1.04 ± 0.053	1.06 ± 0.038	1.01 ± 0.035	1.03 ± 0.046	1.06 ± 0.015
MDC1 (UniProt Q14676)	1.13 ± 0.032	1.31 ± 0.086	1.49 ± 0.12	1.86 ± 0.28	2.04 ± 0.41	2.34 ± 0.53
UniProt Q13057 and related entries	0.971 ± 0.021	0.912 ± 0.088	0.993 ± 0.024	1.01 ± 0.063	1.04 ± 0.06	0.994 ± 0.021
UNC119 (UniProt Q13432)	1.006 ± 0.0093	1.007 ± 0.0039	0.987 ± 0.018	0.986 ± 0.054	1.03 ± 0.038	1.03 ± 0.021
UniProt Q13535 and related entries	1.003 ± 0.0071	0.9941 ± 0.0087	1.01 ± 0.022	0.97 ± 0.018	0.962 ± 0.039	0.991 ± 0.042
UniProt Q13618 and related entries	0.98 ± 0.022	0.91 ± 0.07	0.965 ± 0.01	0.958 ± 0.025	0.985 ± 0.018	0.934 ± 0.019
UniProt Q12906 and related entries	1.07 ± 0.069	1.119 ± 0.011	1.13 ± 0.068	1.16 ± 0.088	1.16 ± 0.093	1.22 ± 0.12
HSPA14 (UniProt Q0VDF9)	1.01 ± 0.046	0.998 ± 0.032	1.01 ± 0.034	1.012 ± 0.0091	1.03 ± 0.059	1.02 ± 0.049
UniProt Q14161 and related entries	1.01 ± 0.03	1.02 ± 0.022	0.991 ± 0.015	0.985 ± 0.017	0.951 ± 0.017	0.9698 ± 0.0089
UniProt Q13105 and related entries	1.01 ± 0.06	1.011 ± 0.0042	1.03 ± 0.028	1.04 ± 0.057	1.04 ± 0.051	1.07 ± 0.072
ITPR3 (UniProt Q14573)	0.98 ± 0.044	0.949 ± 0.053	0.964 ± 0.067	0.96 ± 0.097	0.98 ± 0.071	0.976 ± 0.12
RIPK1 (UniProt Q13546)	0.975 ± 0.028	0.928 ± 0.093	0.954 ± 0.036	0.932 ± 0.024	0.922 ± 0.014	0.921 ± 0.016
EEA1 (UniProt Q15075)	1.02 ± 0.022	1.08 ± 0.078	1.02 ± 0.029	0.992 ± 0.014	0.958 ± 0.034	0.979 ± 0.043
UniProt Q14155-1|B1ALK7	1.02 ± 0.016	1 ± 0.013	0.993 ± 0.018	0.952 ± 0.048	0.937 ± 0.022	0.925 ± 0.025
UniProt Q14156 and related entries	0.9764 ± 0.0041	0.961 ± 0.041	0.9737 ± 0.0064	0.952 ± 0.023	0.973 ± 0.015	0.953 ± 0.018
AHNAK (UniProt Q09666)	1.03 ± 0.024	1.09 ± 0.075	1.04 ± 0.035	0.999 ± 0.023	0.947 ± 0.012	0.984 ± 0.049
ITK (UniProt Q08881)	0.934 ± 0.029	0.827 ± 0.061	0.861 ± 0.019	0.802 ± 0.063	0.79 ± 0.072	0.754 ± 0.05
UniProt Q14197 and related entries	1 ± 0.1	0.952 ± 0.083	0.974 ± 0.087	0.95 ± 0.13	0.978 ± 0.14	0.953 ± 0.19
UniProt Q12888 and related entries	1.01 ± 0.026	1.05 ± 0.043	0.997 ± 0.041	0.976 ± 0.035	0.942 ± 0.029	0.967 ± 0.056
UniProt Q13191 and related entries	1.008 ± 0.0089	1.04 ± 0.022	1.016 ± 0.0079	1.02 ± 0.031	0.98 ± 0.023	1 ± 0.036
SNW1 (UniProt Q13573)	1.05 ± 0.026	1.11 ± 0.051	1.06 ± 0.022	1.06 ± 0.051	1.02 ± 0.028	1.08 ± 0.042
SUZ12 (UniProt Q15022)	1.02 ± 0.022	1.05 ± 0.013	1.09 ± 0.025	1.09 ± 0.021	1.12 ± 0.025	1.16 ± 0.044
UniProt Q14005 and related entries	1.01 ± 0.013	1.03 ± 0.053	1 ± 0.034	0.9814 ± 0.0057	0.967 ± 0.036	0.965 ± 0.02

Some of the entries above in a different format:
UniProt Q13618 and related entries
  NP40-soluble protein abundance (concentration: 1mM): 0.98 ± 0.022
  NP40-soluble protein abundance (concentration: 2mM): 0.91 ± 0.07
  NP40-soluble protein abundance (concentration: 4mM): 0.965 ± 0.01
  NP40-soluble protein abundance (concentration: 6mM): 0.958 ± 0.025
  NP40-soluble protein abundance (concentration: 8mM): 0.985 ± 0.018
  NP40-soluble protein abundance (concentration: 10mM): 0.934 ± 0.019
UniProt Q14197 and related entries
  NP40-soluble protein abundance (concentration: 1mM): 1 ± 0.1
  NP40-soluble protein abundance (concentration: 2mM): 0.952 ± 0.083
  NP40-soluble protein abundance (concentration: 4mM): 0.974 ± 0.087
  NP40-soluble protein abundance (concentration: 6mM): 0.95 ± 0.13
  NP40-soluble protein abundance (concentration: 8mM): 0.978 ± 0.14
  NP40-soluble protein abundance (concentration: 10mM): 0.953 ± 0.19
